According to US20100203531A1, “PREDICTING RESPONSIVENESS TO TEMOZOLOMIDE” (priority 2007, published 2010):
For at least one compound, name, drawing or mass did not settle the structure.

Columns and labels:
[1] = tested on: GBM patients; details: cited from earlier work
[2] = tested on: GBM patients; test: Clinical response of the patients from whom xenograft lines were established; format: in vivo, human
[3] = tested on: GBM12 flank tumor; test: Serial in vivo TMZ treatment of GBM12 flank tumor (resistance development); set-up: species or system human

What does the source list for `Cn1nnc2c(C(N)=O)ncn2c1=O` [TMZ, Temozolomide]?
patients with disease progression during the first 6 months of TMZ therapy ([1]; newly diagnosed GBM, irrespective of promoter methylation status (Hegi et al.)): over 30%; patients with prolonged survival with TMZ treatment ([1]; patients lacking MGMT hypermethylation): about 15%; patients who progress while on TMZ therapy ([1]; patients with MGMT hypermethylation): About 30%; clinical response to TMZ ([2]; patient corresponding to GBM34, TMZ after BCNU failure): stable disease for three cycles; clinical response to TMZ ([2]; patient corresponding to GBM39, TMZ at recurrence): initial partial response to TMZ with subsequent progression after seven cycles; clinical response to TMZ ([2]; patient corresponding to GBM46, TMZ 150 mg/m^2 x5 every 28 days after progression on BCNU): rapidly progressed during the first cycle; clinical response to TMZ ([2]; patient from whom GBM26 was derived, TMZ at recurrence after radiation monotherapy): rapidly progressed on their second cycle; clinical response to TMZ ([2]; patient from whom GBM38 was derived, TMZ at recurrence after radiation monotherapy): rapidly progressed on their second cycle; response of recurrent tumor to re-challenge ([3]; recurrent GBM12 flank tumor, 66 mg/kg TMZ x3 doses): insensitive; tumor response to initial TMZ ([3]; single 1 cm^3 GBM12 flank tumor, three doses of 20 mg/kg TMZ over one week): complete regression; response of passaged resistant tumor to rechallenge ([3]; tumor passaged into second mouse, approx. 1 cm^3, 120 mg/kg TMZ): completely ineffective
